Source: PMC10897448
Results are given in words; binding and its absence hold for the method and conditions named. In cells and extracts the contact can be indirect. A yes stands for co-enrichment or nearness to the bait. Other partners may have been found. For part of these data: Sequences can lack the tags named with a protein.

Protein sequences, listed by entry. Tags and fused reporters are not part of them. Residues count along the entry.
UniProt P19484: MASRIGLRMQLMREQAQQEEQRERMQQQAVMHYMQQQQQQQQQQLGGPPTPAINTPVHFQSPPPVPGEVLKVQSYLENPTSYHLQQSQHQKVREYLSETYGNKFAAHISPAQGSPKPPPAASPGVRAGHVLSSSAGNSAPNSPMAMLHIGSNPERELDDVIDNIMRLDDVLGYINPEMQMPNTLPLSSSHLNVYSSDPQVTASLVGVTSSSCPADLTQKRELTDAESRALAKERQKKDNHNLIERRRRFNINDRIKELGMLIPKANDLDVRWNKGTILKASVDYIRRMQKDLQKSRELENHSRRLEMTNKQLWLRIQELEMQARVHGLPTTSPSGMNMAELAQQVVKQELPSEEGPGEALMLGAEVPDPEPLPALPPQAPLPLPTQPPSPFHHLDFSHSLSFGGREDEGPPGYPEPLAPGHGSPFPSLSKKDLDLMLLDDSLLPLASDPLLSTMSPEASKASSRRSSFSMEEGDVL
UniProt P38646, residues 47-679: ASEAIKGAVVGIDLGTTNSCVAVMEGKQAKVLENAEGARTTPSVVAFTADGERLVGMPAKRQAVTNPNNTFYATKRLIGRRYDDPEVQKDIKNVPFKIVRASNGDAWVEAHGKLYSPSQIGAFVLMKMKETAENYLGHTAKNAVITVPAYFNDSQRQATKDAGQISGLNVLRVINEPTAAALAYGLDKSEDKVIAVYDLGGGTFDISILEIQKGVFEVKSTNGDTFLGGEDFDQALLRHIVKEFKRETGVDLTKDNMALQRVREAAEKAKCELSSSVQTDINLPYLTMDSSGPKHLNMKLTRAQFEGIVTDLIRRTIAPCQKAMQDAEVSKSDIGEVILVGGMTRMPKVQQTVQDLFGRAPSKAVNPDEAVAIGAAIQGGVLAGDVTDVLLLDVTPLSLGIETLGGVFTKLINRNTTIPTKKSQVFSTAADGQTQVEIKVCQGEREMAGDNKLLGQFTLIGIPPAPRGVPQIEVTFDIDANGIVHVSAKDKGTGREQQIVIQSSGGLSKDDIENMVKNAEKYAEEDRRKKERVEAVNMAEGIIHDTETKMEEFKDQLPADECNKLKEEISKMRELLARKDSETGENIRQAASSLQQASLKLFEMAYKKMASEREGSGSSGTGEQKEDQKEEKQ
UniProt P31946: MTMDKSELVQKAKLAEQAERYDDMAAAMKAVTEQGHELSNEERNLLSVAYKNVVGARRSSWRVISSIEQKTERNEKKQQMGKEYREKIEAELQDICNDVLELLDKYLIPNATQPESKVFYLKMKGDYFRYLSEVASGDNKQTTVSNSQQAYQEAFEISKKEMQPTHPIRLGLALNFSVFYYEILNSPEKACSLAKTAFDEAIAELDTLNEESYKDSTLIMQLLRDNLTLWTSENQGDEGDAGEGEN
UniProt P62258: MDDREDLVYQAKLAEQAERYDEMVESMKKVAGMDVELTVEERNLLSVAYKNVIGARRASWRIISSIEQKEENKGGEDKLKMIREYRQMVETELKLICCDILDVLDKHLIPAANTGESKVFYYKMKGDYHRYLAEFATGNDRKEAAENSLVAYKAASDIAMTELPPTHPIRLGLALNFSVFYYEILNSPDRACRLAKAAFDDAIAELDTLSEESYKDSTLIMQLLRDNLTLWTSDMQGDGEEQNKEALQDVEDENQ
UniProt P63104: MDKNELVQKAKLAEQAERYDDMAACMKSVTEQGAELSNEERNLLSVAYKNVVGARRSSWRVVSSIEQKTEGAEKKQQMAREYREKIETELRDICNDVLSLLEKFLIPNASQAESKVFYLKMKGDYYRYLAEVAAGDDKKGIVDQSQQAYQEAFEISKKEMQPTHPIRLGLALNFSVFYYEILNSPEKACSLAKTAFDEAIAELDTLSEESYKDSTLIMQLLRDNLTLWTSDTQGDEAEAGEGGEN
UniProt P40763: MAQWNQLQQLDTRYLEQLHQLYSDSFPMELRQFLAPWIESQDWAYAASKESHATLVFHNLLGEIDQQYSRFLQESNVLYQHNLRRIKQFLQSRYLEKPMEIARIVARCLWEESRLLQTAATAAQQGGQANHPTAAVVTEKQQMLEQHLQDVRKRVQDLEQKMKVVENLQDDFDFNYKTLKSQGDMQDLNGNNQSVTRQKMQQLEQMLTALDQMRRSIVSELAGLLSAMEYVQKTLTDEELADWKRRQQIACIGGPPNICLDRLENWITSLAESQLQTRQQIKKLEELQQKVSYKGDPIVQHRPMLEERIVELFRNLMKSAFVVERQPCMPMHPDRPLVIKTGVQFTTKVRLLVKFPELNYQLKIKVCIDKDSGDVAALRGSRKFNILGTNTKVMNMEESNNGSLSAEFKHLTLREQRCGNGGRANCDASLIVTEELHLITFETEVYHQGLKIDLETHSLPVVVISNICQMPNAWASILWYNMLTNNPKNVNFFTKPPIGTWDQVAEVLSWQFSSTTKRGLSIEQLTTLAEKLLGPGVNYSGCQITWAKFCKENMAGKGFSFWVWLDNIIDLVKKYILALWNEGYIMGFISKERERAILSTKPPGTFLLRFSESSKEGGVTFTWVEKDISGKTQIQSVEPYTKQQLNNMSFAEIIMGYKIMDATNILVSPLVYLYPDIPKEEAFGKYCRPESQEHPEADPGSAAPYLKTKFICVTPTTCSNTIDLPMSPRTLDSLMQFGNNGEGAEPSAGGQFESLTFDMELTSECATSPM

B1: YWHAQ (14-3-3 protein) (protein, UniProt P27348 1-245)
chain: MEKTELIQKAKLAEQAERYDDMATCMKAVTEQGAELSNEERNLLSVAYKNVVGGRRSAWRVISSIEQKTDTSDKKLQLIKDYREKVESELRSICTTVLELLDKYLIANATNPESKVFYLKMKGDYFRYLAEVACGDDRKQTIDNSQGAYQEAFDISKKEMQPTHPIRLGLALNFSVFYYEILNNPELACTLAKTAFDEAIAELDTLNEDSYKDSTLIMQLLRDNLTLWTSDSAGEECDAAEGAEN
B2: LONP1 (found in the TFEB-FLAG interactome) (enzyme, UniProt P36776 68-959)
chain: FWEASSRGGGAFSGGEDASEGGAEEGAGGAGGSAGAGEGPVITALTPMTIPDVFPHLPLIAITRNPVFPRFIKIIEVKNKKLVELLRRKVRLAQPYVGVFLKRDDSNESDVVESLDEIYHTGTFAQIHEMQDLGDKLRMIVMGHRRVHISRQLEVEPEEPEAENKHKPRRKSKRGKKEAEDELSARHPAELAMEPTPELPAEVLMVEVENVVHEDFQVTEEVKALTAEIVKTIRDIIALNPLYRESVLQMMQAGQRVVDNPIYLSDMGAALTGAESHELQDVLEETNIPKRLYKALSLLKKEFELSKLQQRLGREVEEKIKQTHRKYLLQEQLKIIKKELGLEKDDKDAIEEKFRERLKELVVPKHVMDVVDEELSKLGLLDNHSSEFNVTRNYLDWLTSIPWGKYSNENLDLARAQAVLEEDHYGMEDVKKRILEFIAVSQLRGSTQGKILCFYGPPGVGKTSIARSIARALNREYFRFSVGGMTDVAEIKGHRRTYVGAMPGKIIQCLKKTKTENPLILIDEVDKIGRGYQGDPSSALLELLDPEQNANFLDHYLDVPVDLSKVLFICTANVTDTIPEPLRDRMEMINVSGYVAQEKLAIAERYLVPQARALCGLDESKAKLSSDVLTLLIKQYCRESGVRNLQKQVEKVLRKSAYKIVSGEAESVEVTPENLQDFVGKPVFTVERMYDVTPPGVVMGLAWTAMGGSTLFVETSLRRPQDKDAKGDKDGSLEVTGQLGEVMKESARIAYTFARAFLMQHAPANDYLVTSHIHLHVPEGATPKDGPSAGCTIVTALLSLAMGRPVRQNLAMTGEVSLTGKILPVGGIKEKTIAAKRAGVTCIVLPAENKKDFYDLAAFITEGLEVHFVEHYREIFDIAFPDEQAEALAVER
B3: YWHAG (14-3-3 protein) (protein, UniProt P61981 1-247)
chain: MVDREQLVQKARLAEQAERYDDMAAAMKNVTELNEPLSNEERNLLSVAYKNVVGARRSSWRVISSIEQKTSADGNEKKIEMVRAYREKIEKELEAVCQDVLSLLDNYLIKNCSETQYESKVFYLKMKGDYYRYLAEVATGEKRATVVESSEKAYSEAHEISKEHMQPTHPIRLGLALNYSVFYYEIQNAPEQACHLAKTAFDDAIAELDTLNEDSYKDSTLIMQLLRDNLTLWTSDQQDDDGGEGNN
B4: YWHAH (14-3-3 protein) (protein, UniProt Q04917 1-246)
chain: MGDREQLLQRARLAEQAERYDDMASAMKAVTELNEPLSNEDRNLLSVAYKNVVGARRSSWRVISSIEQKTMADGNEKKLEKVKAYREKIEKELETVCNDVLSLLDKFLIKNCNDFQYESKVFYLKMKGDYYRYLAEVASGEKKNSVVEASEAAYKEAFEISKEQMQPTHPIRLGLALNFSVFYYEIQNAPEQACLLAKQAFDDAIAELDTLNEDSYKDSTLIMQLLRDNLTLWTSDQQDEEAGEGN

These molecules were tested against WT-TFEB FLAG (ectopically expressed transcription factor EB) (UniProt P19484) (assay: affinity purification with mass spectrometry).

binding, binds:
Heat Shock Protein Family A (Hsp70) Member 9 (HSPA9) (from UniProt P38646 47-679)
YWHAB (14-3-3 protein) (from UniProt P31946 1-246)
YWHAE (14-3-3 protein) (from UniProt P62258 1-255)
YWHAZ (14-3-3 protein) (from UniProt P63104 1-245)
signal transducer and activator of transcription 3 (STAT3) (from UniProt P40763 1-770)

Biological target: WT-TFEB FLAG (ectopically expressed transcription factor EB) (UniProt P19484)
Experiment: affinity purification with mass spectrometry
Remark: another data set of the same source

binding, binds:
B1
B2
B3
B4
